From PubChem BioAssay AID493014 (National Center for Advancing Translational Sciences (NCATS), 2011)
The list shows a part of the results. These are further read-outs of the screen, such as a control signal, another cell line or another target. No call is given for them. Most of these compounds were active or inconclusive in the main read-out, so they are no random draw. Words in brackets tell the shape of the fitted curve; partial curves, single points and poor fits give uncertain potencies.

Assay: qHTS Assay to Find Inhibitors of Chronic Active B-Cell Receptor Signaling
Conditions: ABC-DLBCL IkBa-CBG/CBR reporter, luminescence ratio (green luciferase fused to IkBa over red control in TMD8 lymphoma cells), 4 h
Procedure, shortened: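 Compounds up to 46 uM were incubated four hours with TMD8 cells whose green CBG68 luciferase is fused to IkappaBalpha; red CBR luminescence normalised the signal, and concentration-effect curves were fitted to fusion, red and ratio data.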

[1] = measured here: CBR red luminescence, cell number
[2] = measured here: IkBa-CBG green luminescence

Compound	AC50 [1]	AC50 [2]
CCCCNC(=O)CC1Nc2ccccc2NC1=O (centres undefined)	6.51 µM [rising, single point]	–
COc1ccc(C(=O)/C(=C/N(C)C)S(=O)(=O)c2ccccc2)cc1	0.355 µM [rising, partial curve, poor fit]	–
COc1ccc(NC(=O)c2ccc(NC(=O)N3CCSc4ncccc43)cc2)cc1	11.2 µM [falling, partial curve]	–
CCn1c(Cc2cccc3ccccc23)nnc1SCC(=O)Nc1nccs1	29.1 µM [falling, single point]	–
O=C(CN(Cc1ccco1)C(=O)CNS(=O)(=O)c1ccccc1)NCc1ccc(F)cc1	2.06 µM [rising, full curve, poor fit]	–
COc1ccccc1N1CCN(C(=O)C2CCN(S(=O)(=O)c3ccc4c(c3)CC(C)N4C(C)=O)CC2)CC1 (centres undefined)	0.1 µM [rising, full curve, poor fit]	–
CC(=O)c1cccc(NC(=S)NC(=O)c2ccccc2)c1	23.1 µM [falling, partial curve]	–
COc1ccccc1CNn1c(-c2cccc(C)c2)nc2ccccc2c1=O	20.6 µM [falling, single point]	–
COC(=O)c1ccc(-c2nc(O)c3cnccn23)cc1	0.562 µM [falling, full curve, poor fit]	–
FC(F)(F)c1cccc(NC(=S)Nc2cccc(NC(=S)Nc3cccc(C(F)(F)F)c3)n2)c1	0.708 µM [falling, full curve, poor fit]	25.1 µM [falling, single point]
CCN(CC)CCNC(=O)CCn1nc(-c2ccc(Cl)cc2)ccc1=O	0.112 µM [rising, full curve, poor fit]	–
CCOC(=O)Cn1c(=N)n(CCOc2ccc(F)cc2)c2ccccc21	2.82 µM [falling, partial curve, poor fit]	–
COc1cccc(/C=N/Nc2nc(C)cc(=O)[nH]2)c1OC	22.4 µM [falling, partial curve, poor fit]	–
Cn1c(=O)c2c(nc(Br)n2Cc2ccc3ccccc3c2)n(C)c1=O	10 µM [falling, partial curve]	–
O=C1/C(=N\S(=O)(=O)c2cccs2)C([n+]2ccc(CCCc3ccccc3)cc2)=C([O-])c2ccccc21	6.31 µM [falling, full curve, poor fit]	–
O=C(Cn1ncc(Cl)c(Cl)c1=O)N1CCc2ccccc21	3.55 µM [falling, full curve]	5.01 µM [rising, full curve, poor fit]
COc1ccc(NC(=O)CN(C)C(=O)C2CCCO2)cc1 (centres undefined)	0.461 µM [rising, full curve, poor fit]	–
COc1ccccc1CNC(=O)c1ccc2[nH]c(C)c(C)c2c1	10 µM [falling, partial curve]	–
Clc1nccnc1-c1ccccc1	23.1 µM [rising, partial curve, poor fit]	–
Cc1c(NC(=O)c2cccc(NC(=O)Cc3c(F)cccc3Cl)c2)c(=O)n(-c2ccccc2)n1C	1.84 µM [rising, full curve]	–

Already shown: entries from further up.
Compound	AC50 [1]	AC50 [2]
COc1ccc(NC(=O)CN(C)C(=O)C2CCCO2)cc1 (centres undefined)	0.461 µM [rising, full curve, poor fit]	–
COc1ccccc1CNC(=O)c1ccc2[nH]c(C)c(C)c2c1	10 µM [falling, partial curve]	–

Next part.

Compound	AC50 [1]	AC50 [2]
Cc1nc(C(F)(F)F)c(C(=O)N/N=C(\N)c2ccccn2)s1	10 µM [falling, partial curve]	–
CSc1ncc(Cl)c(C(=O)Nc2cccc(Cl)c2)n1	35.5 µM [falling, single point]	–
C/C(=N\NC(=S)NC(C)C)c1cccc([N+](=O)[O-])c1	20.6 µM [rising, partial curve]	23.1 µM [falling, single point]
C=C1C(=O)O[C@@H]2[C@H]1[C@@H](OC(=O)/C(C)=C/C)C/C(C)=C\C(=O)/C=C(\C)[C@@H]2O	0.891 µM [falling, full curve, poor fit]	–
Cc1nn(-c2cccc(C(F)(F)F)c2)c(Cl)c1/C=N/n1cnnc1	35.5 µM [rising, single point]	–
CC(=O)c1c(C)n(CCc2ccc(Cl)cc2)c2ccc(O)cc12	12.6 µM [rising, partial curve, poor fit]	–
CCOc1ccc(/C=N/n2nnnc2N)cc1O	3.98 µM [falling, single point]	–
Cc1ccc(-n2c(C)cc(C(=O)OCC(=O)N(CC(C)C)C3CCS(=O)(=O)C3)c2C)cc1 (centres undefined)	2.51 µM [falling, full curve]	–
COc1cc(C(C)=O)ccc1OCC(=O)Nc1ccc(Cl)c(S(=O)(=O)N2CCOCC2)c1	32.6 µM [falling, partial curve, poor fit]	–
CCOC(=O)c1[nH]cnc1C(=O)N1CCN(C(=O)OC(C)(C)C)CC1	0.146 µM [rising, full curve, poor fit]	–
Cc1ccccc1C(=O)N1CCN(c2ccc(NC(=O)c3ccco3)cc2Cl)CC1	2.06 µM [falling, partial curve, poor fit]	–
CC(=O)N1CC(=O)N(c2ccccc2)C1=O	35.5 µM [rising, single point]	–
CCOC(=O)C1=NNC2(CC(=O)N(c3cccc(C)c3)C2=O)C1 (centres undefined)	35.5 µM [rising, single point]	–
Cn1c(=O)c2c(nc(Br)n2C/C=N/NC(N)=S)n(C)c1=O	20 µM [falling, single point]	35.5 µM [falling, single point]
N#Cc1ccc(C(=O)Nc2nc3ccccc3[nH]2)cc1	2.24 µM [falling, full curve]	–
CC(C)N(C(=O)[C@H]1C[C@H](CC(=O)NCCc2ccccn2)C(=O)N2CCc3c([nH]c4cc(-c5ccco5)ccc34)[C@]12C)C(C)C	32.6 µM [falling, single point]	–
COc1cc(/C=C2\SC(=S)N(CCC(=O)Nc3ccccn3)C2=O)cc(OC)c1OC	8.91 µM [falling, partial curve]	–
Cc1ccc(CC(=O)Nc2cccc(C)n2)cc1	1.46 µM [rising, partial curve, poor fit]	–
CCOC(=O)C1=C(N)Oc2c(oc(CO)cc2=O)C1c1c(F)cccc1Cl (centres undefined)	0.146 µM [falling, single point]	–
Cc1cccc(N2CCN(C(=O)CSc3ccsc3[N+](=O)[O-])CC2C)c1 (centres undefined)	14.6 µM [falling, partial curve, poor fit]	–

Compound	AC50 [1]	AC50 [2]
Cc1ccc(S(=O)(=O)N(C)CC(=O)NNC(=O)CCC(=O)c2ccc(F)cc2)cc1	29.1 µM [rising, partial curve, poor fit]	–
c1ccc(CN2CN=C(Nc3nc4ccccc4s3)NC2)cc1	23.1 µM [rising, single point]	–
CN(C(=O)c1ccc(NC(=O)Cc2cccc(NC(=O)C3CCN(C(=O)C4CC4)CC3)c2)cc1)C1CCCC1	13 µM [rising, partial curve]	–
C=CCc1cccc2cc(-c3nc4ccc(C)cc4[nH]3)c(=O)oc12	0.251 µM [falling, full curve, poor fit]	–
C#CCOCCOCCOCCNc1nc(N2CCN(C(=O)CCCCCCCCCCNC(=O)[C@@H](CCSC)n3cc(CCO)nn3)CC2)nc(N2CCN(C(=O)CCCCCCCCCCNC(=O)[C@H](CCCN=C(N)N)n3cc(C[C@@H](C)CC)nn3)CC2)n1	2.31 µM [rising, full curve]	–
COc1cc(C(=O)Nc2nc3ccccc3[nH]2)ccc1OC(F)F	7.08 µM [falling, partial curve]	–
CC1(C)CC(=O)CC(=O)/C1=N\Nc1c(Cl)cc(Cl)cc1Cl	0.92 µM [rising, full curve]	–
CCOC(=O)CNC(=O)Cn1c(C)cc2ccccc2c1=O	3.16 µM [rising, full curve, poor fit]	–
Cc1cc(C)n(-c2nc(C)c(C)c(=O)n2CC(=O)Nc2ccc([N+](=O)[O-])cc2)n1	7.94 µM [rising, partial curve, poor fit]	–
CN(C)CCCNC(=S)NCC(c1ccc(Cl)cc1Cl)c1c[nH]c2ccccc12 (centres undefined)	12.6 µM [falling, single point]	–
Cn1nc(CC(=O)NCc2ccc(C(F)(F)F)cc2)c2ccccc2c1=O	29.1 µM [rising, single point]	–
Cc1ccc(C(C)C)c(OCc2ccc(C(=O)N/N=C/c3ccc(O)cc3O)cc2)c1	2.31 µM [falling, full curve]	–
Cc1ccc(-n2cc(-c3ccccc3)c3c(=O)[nH]cnc32)cc1	23.1 µM [falling, single point]	–
Cc1ccc2c(c1)c1c(n2CC2COC(C)(C)O2)C(=O)CCC1 (centres undefined)	0.891 µM [rising, full curve, poor fit]	–
NC(=O)C1CCCN(C(=O)c2ccc3nc(Cc4cccc(Cl)c4)oc3c2)C1 (centres undefined)	0.316 µM [falling, full curve, poor fit]	–
CCc1cc(=O)[nH]c(SCc2cccc3ccccc23)n1	14.1 µM [falling, partial curve, poor fit]	–
O=C(NNC(=O)c1cc(Br)c(Br)s1)c1ccncc1	16.4 µM [falling, partial curve]	–
CC(=O)OC[C@H]1O[C@@H](Sc2cccc3cccnc23)[C@H](OC(C)=O)[C@@H](OC(C)=O)[C@H]1OC(C)=O	23.1 µM [rising, partial curve, poor fit]	18.4 µM [falling, single point]
Brc1ccc(N/N=C(/N=Nc2nn[nH]n2)c2ccccc2)cc1	0.447 µM [rising, full curve, poor fit]	–
